Assay: peptide synthesis
Conditions: conjugation step, SEC-HPLC (Agilent Advance Bio SEC 4.6*300 mm, isocratic, 25 min)

| Substance | purity (crude or final not stated) [%] |
| --- | --- |
| CKKEE-MM-huHPRT | 86 |
| CKKEE-MM-muExemplary Target 1 | 91 |
| CKKEE-MM-muHPRT | 86 |
